Reference: patent US6075006A (Centro Interuniversitario di Ricera Sui Peptidi …, priority 1996, dated 2000)
Some peptides are written in HELM: one residue between dots, names in brackets for other building blocks, links after the first $.

Assays:
[1] = general procedure: Boc solid-phase peptide synthesis; PAM resin functionalized with Boc-Leu; Macrosorb SPR resin with p-hydroxymethylbenzoic acid linker (Comparative Example); PyBop/DIEA (cyclisation); HOBT/DCC (Comparative Example 2); conditions: analytical HPLC
[2] = solid-phase peptide synthesis; conditions: cyclisation step, analytical HPLC

PEPTIDE1{[CysG].[Dx].W.F.[Dapx].L}|CHEM1{[Gal]}$PEPTIDE1,PEPTIDE1,6:R2-1:R1|PEPTIDE1,PEPTIDE1,2:R3-5:R3|PEPTIDE1,CHEM1,1:R3-1:R1$$$V2.0
crude HPLC purity ([1]; late stage modification step): area>80% | final HPLC purity ([1]; late stage modification step): purity>94%

PEPTIDE1{[SerG].[Dx].W.F.[Dapx].L}|CHEM1{[Gal]}$PEPTIDE1,PEPTIDE1,6:R2-1:R1|PEPTIDE1,PEPTIDE1,2:R3-5:R3|PEPTIDE1,CHEM1,1:R3-1:R1$$$V2.0
crude HPLC purity ([1]; whole synthesis): purity>85% | final HPLC purity ([1]; whole synthesis): purity>94%

PEPTIDE1{[AsnG].[Dx].W.F.[Dapx].L}|CHEM1{[Gal]}$PEPTIDE1,PEPTIDE1,6:R2-1:R1|PEPTIDE1,PEPTIDE1,2:R3-5:R3|PEPTIDE1,CHEM1,1:R3-1:R1$$$V2.0
final HPLC purity ([1]; cyclisation step): purity>94% | crude HPLC purity [2]: purity>80%
